In PubChem BioAssay AID493014 (National Center for Advancing Translational Sciences (NCATS), 2011) one finds AC50 data, which are given here for 59 compounds.

A short description of the assay: qHTS Assay to Find Inhibitors of Chronic Active B-Cell Receptor Signaling. Conditions: ABC-DLBCL IkBa-CBG/CBR reporter, luminescence ratio (green luciferase fused to IkBa over red control in TMD8 lymphoma cells), 4 h. The essentials:
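Cell line TMD8 (human ABC DLBCL), stably expressing tet-inducible CBG68-IkBa fusion and CBR; IMDM/0.5% FBS; cpd up to 46 uM; dox induction, 4 h, 37C/5% CO2; dual luminescence; green/red ratio; MG132 control.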
Background: In qHTS, concentration-response curves come from the screen itself.

Where [1] appears, read: measured here: CBR red luminescence, cell number.
[2] abbreviates: measured here: IkBa-CBG green luminescence.

The other results are listed elsewhere or left out. These are further read-outs of the screen, such as a control signal, another cell line or another target. No call is given for them. Most of these compounds were active or inconclusive in the main read-out, so they are no random draw. Words in brackets tell the shape of the fitted curve; partial curves, single points and poor fits give uncertain potencies.

Broadly, the AC50 is the concentration giving half of the maximal activity seen.

`O=C(c1ccco1)N1N=C(c2cccs2)CC1c1ccc(F)cc1` (centres undefined): the AC50 under setting [1] is 10.3 µM [falling, partial curve, poor fit].

Turning to `Cn1c(SCC(=O)c2ccc(F)cc2)ncc(C(=O)Nc2ccccc2)c1=O`, the half-maximal activity concentration (AC50) under setting [1] was 5.8 µM [rising, partial curve].

`Cc1ccc(/C=C/C(=O)c2nc3ccccc3[nH]2)cc1`: the concentration at half-maximal activity (AC50) under setting [2] is 20 µM [falling, partial curve, poor fit].

Turning to `O=C1CN(C(=O)COC(=O)c2ccc[n+]([O-])c2)c2ccccc2N1`, the AC50 under setting [1] was 10 µM [rising, partial curve].

In the case of `Cc1ccccc1OCc1nc(-c2ccccc2)no1`, the half-maximal activity concentration (AC50) under setting [1] is 1.3 µM [rising, partial curve].

`Cc1ccc(NC(=O)COC(=O)Cn2c(C)csc2=O)c([N+](=O)[O-])c1`: the AC50 under setting [1] was 20.6 µM [rising, partial curve].

Regarding `Cc1cccc(NC(=S)N=Nc2c(O)n(CN3CCOCC3)c3ccccc23)c1C`, the concentration at half-maximal activity (AC50) was 8.2 µM [rising, partial curve] under setting [1] and 3.66 µM [falling, full curve] under setting [2].

For `Cc1ccc(-c2nnc(-c3ccccc3S(=O)(=O)Cc3ccc(Cl)cc3)o2)cc1`, under setting [1], the half-maximal activity concentration (AC50) was 35.5 µM [rising, single point].

On to `O=C1N=C(c2ccccc2)S/C1=C\c1cccs1`, for which the AC50 under setting [1] was 0.411 µM [falling, full curve, poor fit].

For `CN(CC(=O)Nc1ccc(Cl)cc1)C1CCCCC1`, under setting [1], the half-maximal activity concentration (AC50) was 2.51 µM [falling, full curve].

For `CNS(=O)(=O)c1cccc(C(=O)OCC(=O)Nc2ccc(-c3nc4ccc(C)cc4s3)cc2)c1`, under setting [1], the half-maximal activity concentration (AC50) is 3.16 µM [rising, partial curve, poor fit].

`Cc1cccc(CCNC(=O)CCc2nnc(CCc3ccccc3)o2)n1`: the AC50 was 6.31 µM [rising, partial curve, poor fit] under setting [1] and 3.16 µM [falling, single point] under setting [2].

Turning to `Cn1ccnc1SCC(=O)Nc1sccc1C#N`, the half-maximal activity concentration (AC50) under setting [1] is 20 µM [rising, single point].

For the compound `CCC(=NCCc1ccc(OC)c(OC)c1)c1ccccc1O`, the AC50 under setting [1] was 0.708 µM [rising, full curve, poor fit].

As to `Cc1sc2cc3c(c(C(=O)c4ccccc4)[n+]2c1C)-c1cccc2cccc-3c12`, the AC50 under setting [1] was 16.4 µM [falling, partial curve].

In the case of `Cc1c(N=Nc2c(-c3ccc([N+](=O)[O-])cc3)[nH]n(C(N)=S)c2=O)cccc1[N+](=O)[O-]`, the AC50 is, setting by setting: under setting [1], 2 µM [falling, full curve, poor fit]; under setting [2], 2.82 µM [falling, full curve].

Regarding `CN1CCc2ccccc2C1Cc1ccccc1NC(=O)c1sc2ccccc2c1Cl` (centres undefined), the AC50 under setting [1] is 12.6 µM [falling, single point].

As for `C=CCn1c(SCC(=O)c2ccc(O)c(O)c2)nnc1-c1cccc(OC)c1`, the AC50 under setting [1] is 5.8 µM [falling, full curve].

With `COc1ccc(C2=NOC(C(=O)NCc3ccccc3)C2)cc1` (centres undefined), the AC50 under setting [2] was 2.51 µM [falling, full curve, poor fit].

With `Cc1cccn2c(=O)c(/C=C(\C#N)C(N)=O)c(N3CCCCCC3)nc12`, the AC50 under setting [1] was 0.1 µM [falling, full curve, poor fit].

Turning to `Cc1ccc(-n2nnnc2/C=C\Nc2cc(C)on2)cc1`, the concentration at half-maximal activity (AC50) under setting [1] was 8.2 µM [rising, partial curve, poor fit].

`COc1ccccc1/C=C/C(=O)OCC(=O)Nc1cc(C(F)(F)F)ccc1N1CCOCC1`: the concentration at half-maximal activity (AC50) under setting [1] is 18.4 µM [rising, single point].

Take `COc1ccc(N2CCN(CCCNC(=O)C3(S(=O)(=O)c4ccc(Cl)cc4)CC3)CC2)cc1`: the AC50 under setting [1] is 0.366 µM [falling, full curve, poor fit] and the half-maximal activity concentration (AC50) under setting [2] is 0.82 µM [rising, full curve, poor fit].

As to `CCC(C)/C(C)=N/NC(=O)c1ccc(CSc2nc3ccccc3s2)cc1` (centres undefined), the concentration at half-maximal activity (AC50) under setting [1] is 8.2 µM [falling, single point].

On to `O=C(Nc1nnc(-c2ccccc2)s1)c1cccc(S(=O)(=O)N2CCOCC2)c1`, for which the half-maximal activity concentration (AC50) under setting [1] is 1.84 µM [falling, partial curve, poor fit].

Regarding `CCN(Cc1nc2ccccc2c(=O)[nH]1)C(=O)COc1ccccc1Cc1ccccc1`, the AC50 under setting [1] is 29.1 µM [falling, single point].

As to `Nc1[nH]nc2nc(-c3ccccc3)[nH]c(=O)c12`, the half-maximal activity concentration (AC50) under setting [1] is 10 µM [falling, partial curve].

For the compound `COc1ccccc1N1CC(C(=O)NC2CCCCCC2)CC1=O` (centres undefined), under setting [1], the AC50 is 11.6 µM [falling, partial curve, poor fit].

For the compound `Cc1ccc(N2C(=O)N(CC(=O)Nc3ccccc3C)C(=O)C2C)cc1` (centres undefined), the concentration at half-maximal activity (AC50) under setting [1] was 25.1 µM [rising, single point].

On to `CCN(C(=O)COC(=O)c1ccc2[nH]c3c(c2c1)CCCC3)C1CCS(=O)(=O)C1` (centres undefined), for which, under setting [1], the AC50 was 31.6 µM [falling, partial curve, poor fit].

Consider `CCOC(=O)C1C(=O)NC(N2CCN(c3ccccc3)CC2)=NC1c1ccccc1` (centres undefined), for which the half-maximal activity concentration (AC50) under setting [1] was 16.4 µM [rising, partial curve, poor fit].

As for `CN(/N=C/c1ccc(N(C)C)cc1)C1=NS(=O)(=O)c2ccccc21`, the AC50 under setting [1] was 22.4 µM [falling, single point].

For the compound `CCOC(=O)c1[nH]c(C)c(/C(O)=C2\C(=O)C(=O)N(CCCN3CCOCC3)C2c2cccs2)c1C` (centres undefined), the concentration at half-maximal activity (AC50) under setting [1] was 31.6 µM [rising, single point].

Regarding `Cc1nc(OCC(=O)c2ccc(Cl)cc2)c(C#N)c2c1COC(C)(C)C2`, the AC50 under setting [1] is 0.0184 µM [falling, full curve, poor fit].

For `Cc1cc2c3c(c1)C(C)(c1ccccc1)CC(C)(C)N3C(=O)C21C(C#N)=C(N)OC2=C1C(=O)CC(C)(C)C2` (centres undefined), the AC50 runs as follows: under setting [1], 18.4 µM [falling, single point]; under setting [2], 25.9 µM [rising, partial curve, poor fit].

For `Cn1nc([N+](=O)[O-])nc1Sc1nnc(-c2ccccc2)o1`, the half-maximal activity concentration (AC50) is 1.03 µM [falling, partial curve, poor fit] under setting [1] and 6.51 µM [falling, single point] under setting [2].

Take `Cc1[nH]c2ccccc2c1/C=N\NC(=O)CNc1ccc2c(c1)OCO2`: the AC50 under setting [1] is 10.3 µM [falling, partial curve].

As to `Cc1ccc(Cl)c2sc(NC(=O)C3=COCCO3)nc12`, the half-maximal activity concentration (AC50) under setting [1] is 20 µM [falling, single point].

Regarding `CC(C)C[C@H](NC(=O)c1nc[nH]c1C(=O)N1CCC(C)CC1)C(=O)OC(C)(C)C`, under setting [1], the concentration at half-maximal activity (AC50) was 35.5 µM [rising, partial curve, poor fit].

Take `O=C(CSc1ncnc2sc3c(c12)CCCCC3)NCc1ccco1`: the concentration at half-maximal activity (AC50) under setting [1] was 0.103 µM [rising, full curve, poor fit] and the half-maximal activity concentration (AC50) under setting [2] was 16.4 µM [falling, single point].

`COc1ccc(OC)c2sc(N(CCN(C)C)C(=O)/C=C/c3cccs3)nc12`: the half-maximal activity concentration (AC50) under setting [1] was 17.8 µM [falling, partial curve, poor fit].

In the case of `CCn1cc(S(=O)(=O)CC(=O)Nc2ccc3c(c2)OCCO3)c2ccccc21`, the concentration at half-maximal activity (AC50) under setting [1] is 15.8 µM [falling, single point].

Consider `O=C(OCCCN1CCCC1)C1(c2ccccc2)CCCC1`, for which the AC50 was 5.17 µM [falling, single point] under setting [1] and 4.11 µM [rising, single point] under setting [2].

Turning to `NS(=O)(=O)c1ccc(NC2(C(=O)O)CCCC2)cc1`, the AC50 under setting [1] is 10 µM [rising, partial curve, poor fit].

In the case of `Cc1c(/C(Cc2ccccc2)=N/O)c2ccccc2n1C`, under setting [1], the AC50 is 14.6 µM [rising, partial curve, poor fit].

In the case of `COC(=O)c1sccc1NC(=O)Nc1ccccc1OC`, under setting [1], the AC50 was 11.2 µM [falling, partial curve].

Take `CCC1=Nc2cc(C(=O)NCc3ccco3)ccc2Sc2ccccc21`: the AC50 under setting [1] is 11.6 µM [rising, partial curve] and the AC50 under setting [2] was 11.6 µM [falling, partial curve].

In the case of `COc1ccc(/C=C2\SC(=S)N(CC(=O)NCCO)C2=O)cc1`, under setting [1], the AC50 is 5.01 µM [falling, partial curve].

Regarding `Cc1ccc(/C=N/NC(=O)CSc2nc3ccccc3n2Cc2ccccc2)o1`, under setting [1], the AC50 was 9.2 µM [falling, partial curve, poor fit].

On to `CCOC(=O)NC(c1ccccc1)C1CCCCC1=O` (centres undefined), for which the concentration at half-maximal activity (AC50) under setting [1] was 3.66 µM [falling, partial curve] and the concentration at half-maximal activity (AC50) under setting [2] was 2.31 µM [rising, partial curve, poor fit].

Regarding `COc1ccc(OC)c(CCNC(=O)CC2(CC3=NS(=O)(=O)c4ccccc4N3)CCCC2)c1`, the AC50 under setting [1] was 8.91 µM [falling, partial curve, poor fit].

For `Cc1ccc(-c2cc(C(=O)O)c3cc(Br)ccc3n2)s1`, the AC50 under setting [1] was 2.82 µM [falling, full curve, poor fit].

On to `O=c1[nH][nH]c(C(F)(F)F)c1C=Nc1cccc(Cl)c1`, for which the half-maximal activity concentration (AC50) under setting [1] was 12.6 µM [rising, partial curve].

Take `COc1ccc(/C=C/C(=O)c2ccc(C)c([N+](=O)[O-])c2)cc1O`: the concentration at half-maximal activity (AC50) under setting [2] was 29.1 µM [falling, single point].

Regarding `COc1cc(NC(=O)CSCc2ccc(Cl)cc2Cl)c(C(=O)O)cc1OC`, the AC50 under setting [1] was 35.5 µM [falling, single point].

Consider `COc1ccccc1CN(Cc1nc2ccccc2c(=O)[nH]1)S(=O)(=O)c1ccc(C)cc1`, for which, under setting [1], the half-maximal activity concentration (AC50) was 0.651 µM [falling, full curve, poor fit].

For `O=C1c2ccccc2S(=O)(=O)N1Cc1nnc(-c2ccccc2Br)o1`, the AC50 under setting [1] was 6.51 µM [falling, partial curve, poor fit].

Regarding `CC(C)CCNC(=O)COC(=O)c1cc(Br)c(Br)s1`, the concentration at half-maximal activity (AC50) under setting [1] is 35.5 µM [rising, single point].

`CCN(CC)CCNC(=O)c1c(O)c2cccc3c2n(c1=O)CCC3`: the AC50 under setting [1] is 22.4 µM [falling, single point].
